Measurements from PubChem BioAssay AID248 (DTP/NCI, 2004).
The list does not hold the whole screen: it is rich in T/C values a quarter to a half above the control, in often repeated tests (any T/C) and in doses without a T/C. Other doses and runs of a compound stand elsewhere. T/C: endpoint of the treated group in % of that of the vehicle group. Some entries give survivors of the animals treated and no T/C: the source holds a T/C of zero for them, seemingly a mark for toxic or unscored doses. Some doses without a T/C left all or most animals alive at the check, yet need not have been tolerated: the source hardly ever lists a survival T/C far under the control, and the zero likely stands for such cases as well. Survivors were counted at the toxicity check, usually on the fifth day, unless a day is given; later deaths do not show. Schedules are NCI's codes, read here as Q, the interval in days (D) or hours (H), X, the number of doses. Some schedules carry Z or #; the key to these is not given. Some entries were tested several times; the results are listed from low to high. Some structures stand for samples that the source files as different forms (salt, stereo form or complex); doses refer to the form tested. Where survival is the endpoint, the PubChem record calls one and a half times the control and up active, and a quarter to a half above the control has no call in these data; cut-offs in other NCI protocols can differ. Counts like (3×) count equal records among those shown.

System: L1210 leukemia ip in BDF1 mice, survival T/C
Assay: NCI In Vivo Anticancer Drug Screen. Data for tumor model L1210 Leukemia (intraperitoneal) in B6D2F1 (BDF1) mice
Settings: T/C endpoint: mean survival time, higher T/C = longer survival
[1] = dose: 100.0 mg/kg/injection, schedule: Q01DX009 (ip), vehicle: Klucel (hydroxypropylcellulose) (HPC)
[2] = dose: 200.0 mg/kg/injection, schedule: Q01DX001 (ip), vehicle: saline
[3] = dose: 400.0 mg/kg/injection, schedule: Q01DX001 (ip), vehicle: saline
[4] = dose: 200.0 mg/kg/injection, schedule: Q04DX003 (ip), vehicle: saline
[5] = dose: 400.0 mg/kg/injection, schedule: Q04DX003 (ip), vehicle: saline
[6] = dose: 100.0 mg/kg/injection, schedule: Q01DX009 (ip), vehicle: saline with Tween-80
[7] = dose: 200.0 mg/kg/injection, schedule: Q01DX009 (ip), vehicle: saline with Tween-80
[8] = dose: 400.0 mg/kg/injection, schedule: Q01DX009 (ip), vehicle: saline with Tween-80

## C[N+](C)(C)c1ccc(NC(=O)c2ccc(C(=O)Nc3ccc([N+](C)(C)C)cc3)cc2)cc1
dose: 4.0 mg/kg/injection, schedule: Q01DX Z (ip), vehicle: saline
  survivor count: 0 of 6
dose: 8.0 mg/kg/injection, schedule: Q01DX Z (ip), vehicle: saline
  survivor count: 0 of 6
dose: 15.0 mg/kg/injection, schedule: Q01DX Z (ip), vehicle: saline
  survivor count: 0 of 6
dose: 30.0 mg/kg/injection, schedule: Q01DX Z (ip), vehicle: saline
  survivor count: 0 of 6
dose: 60.0 mg/kg/injection, schedule: Q01DX Z (ip), vehicle: saline
  survivor count: 0 of 6
dose: 120.0 mg/kg/injection, schedule: Q01DX Z (ip), vehicle: saline
  survivor count: 0 of 6

## NC(=S)c1cn(C2OC(CO)C(O)C2O)c2ncnc(N)c12 (configuration not stated)
dose: 1.9 mg/kg/injection, schedule: Q01DX009 (ip), vehicle: carboxymethylcellulose (CMC)
  T/C: 127 % of control
dose: 3.0 mg/kg/injection, schedule: Q03HX016 (ip), vehicle: other
  survivor count: 1 of 6
dose: 4.0 mg/kg/injection, schedule: Q03HX024 (ip), vehicle: saline
  survivor count: 2 of 6
dose: 4.0 mg/kg/injection, schedule: Q04DX003 (ip), vehicle: saline
  T/C: 142 % of control
dose: 7.5 mg/kg/injection, schedule: Q01DX009 (ip), vehicle: carboxymethylcellulose (CMC)
  T/C: 127 % of control
dose: 7.5 mg/kg/injection, schedule: Q01DX015 (ip), vehicle: saline
  survivor count: 0 of 6
dose: 11.3 mg/kg/injection, schedule: Q01DX015 (ip), vehicle: saline
  survivor count: 1 of 6
dose: 15.0 mg/kg/injection, schedule: Q01DX009 (ip), vehicle: carboxymethylcellulose (CMC)
  survivor count: 3 of 6
dose: 16.0 mg/kg/injection, schedule: Q08DX002 (ip), vehicle: other
  T/C: 134 % of control
dose: 17.0 mg/kg/injection, schedule: Q01DX015 (ip), vehicle: saline
  survivor count: 3 of 6
dose: 20.0 mg/kg/injection, schedule: Q01DX001 (ip), vehicle: saline
  survivor count: 0 of 4
dose: 24.0 mg/kg/injection, schedule: Q08DX002 (ip), vehicle: other
  survivor count: 1 of 6
dose: 30.0 mg/kg/injection, schedule: Q01DX001 (ip), vehicle: carboxymethylcellulose (CMC)
  survivor count: 2 of 6
dose: 32.0 mg/kg/injection, schedule: Q04DX003 (ip), vehicle: saline
  survivor count: 0 of 6
dose: 40.0 mg/kg/injection, schedule: Q01DX001 (ip), vehicle: saline
  survivor count: 0 of 4
dose: 80.0 mg/kg/injection, schedule: Q01DX001 (ip), vehicle: saline
  survivor count: 0 of 4

## Cc1ccc(S(=O)(=O)ON=C2c3ccccc3-c3ccccc32)cc1
[1]
  T/C: 125 % of control
dose: 400.0 mg/kg/injection, schedule: Q01DX009 (ip), vehicle: Klucel (hydroxypropylcellulose) (HPC)
  survivor count: 6 of 6

## CCN1CCC2CN(C)CCN2C1=S (configuration not stated)
[2]
  survivor count: 1 of 6
[3]
  survivor count: 0 of 6

## CC(=O)OC1CC2(Cl)C(Cl)=C(Cl)C1(Cl)C2(Cl)Cl (configuration not stated)
[4]
  survivor count: 6 of 6

## CCN(CC)CCCC(C)Nc1nccc(/C=C/c2ccc(Cl)cc2)n1 (configuration not stated)
dose: 200.0 mg/kg/injection, schedule: Q04DX003 (ip), vehicle: Klucel (hydroxypropylcellulose) (HPC)
  survivor count: 2 of 6

## CCN(CC)CCCC(C)Nc1c2ccc(Cl)cc2nc2cc(Cl)ccc12 (configuration not stated)
dose: 100.0 mg/kg/injection, schedule: Q01DX009 (ip), vehicle: saline
  survivor count: 5 of 6
[4]
  survivor count: 0 of 6
[5]
  survivor count: 0 of 6

## CCOC(=O)C1(CCCN2C(=O)c3ccccc3C2=O)CC(C(=O)OCC)(C(=O)OCC)CCC1=O (configuration not stated)
dose: 400.0 mg/kg/injection, schedule: Q04DX002 (ip), vehicle: saline with Tween-80
  survivor count: 3 of 3

## CCCCCCC(=O)CCCCCCCCCCCCC(=O)OC
[6]
  survivor count: 6 of 6
[7]
  survivor count: 6 of 6

## CC(C)(C)C(=O)Cn1nnnc1C(=O)C(C)(C)C
dose: 400.0 mg/kg/injection, schedule: Q01DX001 (ip), vehicle: Klucel (hydroxypropylcellulose) (HPC)
  survivor count: 0 of 6

## N=C1C=C(N)C(=O)c2ccccc21
dose: 6.25 mg/kg/injection, schedule: Q01DX009 (ip), vehicle: Klucel (hydroxypropylcellulose) (HPC)
  survivor count: 1 of 3
dose: 12.5 mg/kg/injection, schedule: Q01DX009 (ip), vehicle: Klucel (hydroxypropylcellulose) (HPC)
  survivor count: 0 of 3
dose: 25.0 mg/kg/injection, schedule: Q01DX009 (ip), vehicle: Klucel (hydroxypropylcellulose) (HPC)
  survivor count: 0 of 3
dose: 50.0 mg/kg/injection, schedule: Q01DX009 (ip), vehicle: Klucel (hydroxypropylcellulose) (HPC)
  survivor count: 0 of 3
[1]
  survivor count: 0 of 3
dose: 200.0 mg/kg/injection, schedule: Q01DX009 (ip), vehicle: Klucel (hydroxypropylcellulose) (HPC)
  survivor count: 0 of 3
[7]
  survivor count: 0 of 6
[8]
  survivor count: 0 of 6

## CCOc1ccc(NC(=O)CCCCCCCCC(=O)Nc2ccc(OCC)cc2)cc1
[6]
  T/C: 86, 87 (2×), 94 % of control
[7]
  T/C: 91, 97, 98 % of control
  survivor count: 3 of 3

## COc1ccc(Nc2cc(C)nc(N)n2)cc1
dose: 100.0 mg/kg/injection, schedule: Q01DX Z (ip), vehicle: methylcellulose (MC)
  survivor count: 6 of 6
dose: 200.0 mg/kg/injection, schedule: Q01DX Z (ip), vehicle: methylcellulose (MC)
  survivor count: 6 of 6

## O=C(O)C(O)Cc1ccccc1 (configuration not stated)
[4]
  T/C: 128 % of control
[5]
  survivor count: 5 of 6

## O=C(O)c1ccc(N/N=C/C(F)(F)F)cc1
dose: 25.0 mg/kg/injection, schedule: Q01DX001 (ip), vehicle: saline
  T/C: 136 % of control
dose: 200.0 mg/kg/injection, schedule: Q04DX002 (ip), vehicle: saline
  survivor count: 3 of 3
dose: 400.0 mg/kg/injection, schedule: Q04DX002 (ip), vehicle: saline
  survivor count: 0 of 3 and 0 of 6

## O=C(NO)c1ccccc1O
dose: 800.0 mg/kg/injection, schedule: Q01DX009 (ip), vehicle: Klucel (hydroxypropylcellulose) (HPC)
  survivor count: 5 of 8

## COc1cc2cncc(CC(=O)c3ccc4c(c3)OCO4)c2cc1OC
dose: 400.0 mg/kg/injection, schedule: Q04DX003 (ip), vehicle: saline with Tween-80
  survivor count: 6 of 6

## C=CCNc1ncnc2c1ncn2C1OC(CO)C(O)C1O (configuration not stated)
dose: 50.0 mg/kg/injection, schedule: Q01DX009 (ip), vehicle: other
  T/C: 126 % of control
dose: 75.0 mg/kg/injection, schedule: Q01DX009 (ip), vehicle: other
  T/C: 128 % of control

## CN(CCN(C)c1ccc(N)cc1)c1ccc(N)cc1
dose: 100.0 mg/kg/injection, schedule: Q01DX001 (ip), vehicle: saline
  survivor count: 0 of 6
[2]
  survivor count: 0 of 6
[3]
  survivor count: 0 of 6

## Clc1cccc(C[N+]23CC[N+](Cc4cccc(Cl)c4)(CC2)C3)c1
[3]
  survivor count: 0 of 4

## CC(=O)NC1CCC(C(C)(C)C)CC1 (configuration not stated)
[8]
  survivor count: 0 of 6

## Cc1ccc(C)c(CCN)c1
dose: 200.0 mg/kg/injection, schedule: Q04DX003 (ip), vehicle: saline with Tween-80
  survivor count: 1 of 6

## O=c1[nH]nc(-c2ccncc2)s1
dose: 150.0 mg/kg/injection, schedule: Q01DX001 (ip), vehicle: saline
  survivor count: 3 of 6
[4]
  survivor count: 2 of 6
dose: 300.0 mg/kg/injection, schedule: Q01DX001 (ip), vehicle: saline
  survivor count: 1 of 6
[5]
  survivor count: 0 of 6
